These are yes or no findings as the source states them, for the method shown. In cells and extracts the contact can be indirect. A yes stands for co-enrichment or nearness to the bait. Other partners may have been found.

The chains behind the UniProt entries cited, without tags or fusion partners.
UniProt P46937: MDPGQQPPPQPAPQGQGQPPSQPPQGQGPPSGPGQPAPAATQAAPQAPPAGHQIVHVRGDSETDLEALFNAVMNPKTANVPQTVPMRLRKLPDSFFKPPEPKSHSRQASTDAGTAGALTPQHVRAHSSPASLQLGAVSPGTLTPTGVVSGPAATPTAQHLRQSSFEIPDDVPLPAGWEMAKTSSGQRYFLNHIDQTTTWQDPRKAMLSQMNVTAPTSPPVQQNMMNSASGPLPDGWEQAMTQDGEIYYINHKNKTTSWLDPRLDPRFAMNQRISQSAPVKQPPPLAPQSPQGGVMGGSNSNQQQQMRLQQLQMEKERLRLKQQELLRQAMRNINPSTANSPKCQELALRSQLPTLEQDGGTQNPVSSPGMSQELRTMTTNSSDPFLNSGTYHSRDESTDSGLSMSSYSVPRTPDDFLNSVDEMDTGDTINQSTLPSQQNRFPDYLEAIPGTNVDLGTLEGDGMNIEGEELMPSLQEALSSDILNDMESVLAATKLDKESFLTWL
UniProt Q9Y2J4: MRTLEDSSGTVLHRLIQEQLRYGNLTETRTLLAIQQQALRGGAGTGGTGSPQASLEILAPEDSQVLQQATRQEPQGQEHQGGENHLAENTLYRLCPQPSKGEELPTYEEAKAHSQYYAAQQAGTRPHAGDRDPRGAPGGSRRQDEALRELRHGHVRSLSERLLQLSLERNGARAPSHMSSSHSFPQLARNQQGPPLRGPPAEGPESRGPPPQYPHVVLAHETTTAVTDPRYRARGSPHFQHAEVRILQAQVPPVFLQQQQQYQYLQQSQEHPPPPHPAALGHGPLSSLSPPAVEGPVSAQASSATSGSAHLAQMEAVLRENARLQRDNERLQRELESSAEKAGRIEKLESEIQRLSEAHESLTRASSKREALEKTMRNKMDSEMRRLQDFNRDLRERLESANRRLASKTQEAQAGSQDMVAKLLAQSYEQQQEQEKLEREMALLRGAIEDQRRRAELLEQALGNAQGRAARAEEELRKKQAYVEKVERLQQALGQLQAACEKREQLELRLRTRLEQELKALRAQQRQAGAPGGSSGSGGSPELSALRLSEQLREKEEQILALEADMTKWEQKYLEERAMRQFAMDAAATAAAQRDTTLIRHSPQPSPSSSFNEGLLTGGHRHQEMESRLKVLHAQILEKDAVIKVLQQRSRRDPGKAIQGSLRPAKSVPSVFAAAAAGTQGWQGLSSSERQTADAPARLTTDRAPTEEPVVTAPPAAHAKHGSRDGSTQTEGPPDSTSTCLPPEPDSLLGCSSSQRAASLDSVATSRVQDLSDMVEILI
UniProt P36873: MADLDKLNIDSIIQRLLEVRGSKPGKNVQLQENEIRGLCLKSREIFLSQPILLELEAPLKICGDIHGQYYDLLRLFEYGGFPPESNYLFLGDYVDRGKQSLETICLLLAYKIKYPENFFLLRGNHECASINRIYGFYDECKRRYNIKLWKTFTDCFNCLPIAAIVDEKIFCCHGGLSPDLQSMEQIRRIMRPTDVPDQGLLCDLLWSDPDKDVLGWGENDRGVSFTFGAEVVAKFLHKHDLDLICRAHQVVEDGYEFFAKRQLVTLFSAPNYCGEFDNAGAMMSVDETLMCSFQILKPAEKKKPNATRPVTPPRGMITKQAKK
UniProt Q9UKB1: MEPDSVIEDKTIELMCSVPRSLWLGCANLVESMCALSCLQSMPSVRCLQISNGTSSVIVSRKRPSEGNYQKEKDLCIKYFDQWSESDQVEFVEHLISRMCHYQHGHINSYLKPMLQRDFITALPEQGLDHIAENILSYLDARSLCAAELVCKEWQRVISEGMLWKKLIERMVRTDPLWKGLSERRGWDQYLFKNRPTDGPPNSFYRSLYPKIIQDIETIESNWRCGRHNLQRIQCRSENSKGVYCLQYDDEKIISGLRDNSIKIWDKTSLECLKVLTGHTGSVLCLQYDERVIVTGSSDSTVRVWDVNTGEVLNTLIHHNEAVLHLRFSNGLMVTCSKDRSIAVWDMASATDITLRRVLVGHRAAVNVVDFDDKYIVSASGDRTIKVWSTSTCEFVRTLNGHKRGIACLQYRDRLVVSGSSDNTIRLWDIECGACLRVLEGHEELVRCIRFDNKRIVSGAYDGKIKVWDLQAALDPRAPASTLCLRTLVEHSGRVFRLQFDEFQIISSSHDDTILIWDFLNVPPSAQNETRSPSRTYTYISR
UniProt P62140: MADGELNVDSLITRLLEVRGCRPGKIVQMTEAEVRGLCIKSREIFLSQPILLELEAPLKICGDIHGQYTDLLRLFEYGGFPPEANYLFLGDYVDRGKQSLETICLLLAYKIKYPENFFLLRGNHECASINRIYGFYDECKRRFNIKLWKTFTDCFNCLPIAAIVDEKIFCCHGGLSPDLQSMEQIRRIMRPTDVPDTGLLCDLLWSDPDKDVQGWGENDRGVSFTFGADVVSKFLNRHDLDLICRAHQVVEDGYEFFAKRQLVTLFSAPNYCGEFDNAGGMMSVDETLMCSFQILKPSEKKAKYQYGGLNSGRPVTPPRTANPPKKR
UniProt A6NKD9: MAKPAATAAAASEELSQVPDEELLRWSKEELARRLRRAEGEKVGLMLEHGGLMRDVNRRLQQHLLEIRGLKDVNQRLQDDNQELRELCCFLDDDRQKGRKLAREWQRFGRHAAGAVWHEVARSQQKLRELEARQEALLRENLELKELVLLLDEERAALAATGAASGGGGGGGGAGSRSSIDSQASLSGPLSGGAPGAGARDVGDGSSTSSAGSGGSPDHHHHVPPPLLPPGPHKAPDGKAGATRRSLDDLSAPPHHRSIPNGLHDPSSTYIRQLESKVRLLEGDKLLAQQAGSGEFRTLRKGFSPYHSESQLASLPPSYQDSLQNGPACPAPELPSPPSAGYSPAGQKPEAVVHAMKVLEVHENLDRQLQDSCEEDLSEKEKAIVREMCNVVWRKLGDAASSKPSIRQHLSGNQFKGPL
UniProt P31946: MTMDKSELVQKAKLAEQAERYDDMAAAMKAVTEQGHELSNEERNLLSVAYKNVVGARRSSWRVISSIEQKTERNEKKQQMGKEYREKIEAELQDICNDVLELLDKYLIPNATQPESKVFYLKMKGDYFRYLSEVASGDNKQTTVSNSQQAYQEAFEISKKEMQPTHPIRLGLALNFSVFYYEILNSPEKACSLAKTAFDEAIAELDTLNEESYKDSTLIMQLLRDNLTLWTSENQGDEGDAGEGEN

For the first test, the target named is N terminal Strep-HA-tagged YAP1 (human) (UniProt P46937). In words: affinity purification with mass spectrometry + native gel or EMSA.
For the substance AMOTL2 (from UniProt Q9Y2J4 1-779), the binding result is recorded as “binds”.

The target is the same in another test. In words: affinity purification with mass spectrometry.
For the substance PPP1CC (from UniProt P36873 1-323), the binding entry was “binds”.

On to FBXW11 (from UniProt Q9UKB1 1-542), for which the binding entry was “binds”. For PPP1CB (from UniProt P62140 1-327), the binding result is “binds”. On the same count and under the same terms, under CCDC85C (from UniProt A6NKD9 1-419) stands “binds”; under 1433B (from UniProt P31946 1-246), “binds”.

The values above are taken from article doi:10.1101/2022.03.13.484137.
